In PMC11005723, “Development of Complementary Photo‐arginine/lysine to Promote Discovery of Arg/Lys hPTMs Interactomes” (Advanced Science, 2024):
This continues a long series; more values of the same kind are listed elsewhere.

Tested on: HEK293T nuclear lysates
Assay: SILAC‐based pull‐down proteomics H4K5me1/H4K5 (probes 6/5)
Type: binding, human

“probe 6: H4K5me peptide probe with photo‐arginine R(dz) and K(biotin) (SGRGKGGKGLGKGGK; photo-arginine R(dz) at 3; monomethyl-lysine at 5; K(biotin) at 15)” was tested, and the “B6 log2 (H4K5me/H4K5)” value (protein RAP1A (P62834), run B6) was -0.007077, the “C6 log (H4K5me/H4K5)” value (protein RAP1A (P62834), run C6) was -0.4769 and the “B6 log2 (H4K5me/H4K5)” value (protein RBBP4 (Q09028), SILAC run B6) was -0.4064. For the same substance, the “C6 log (H4K5me/H4K5)” value (protein RBBP4 (Q09028), SILAC run C6) was -0.3461, the “B6 log2 (H4K5me/H4K5)” value (protein RBM4 (Q9BWF3), run B6) was 0.04912 and the “C6 log (H4K5me/H4K5)” value (protein RBM4 (Q9BWF3), run C6) was 0.06332. The “B6 log2 (H4K5me/H4K5)” value (protein RBM25 (P49756), run B6) was -0.007613, the “C6 log (H4K5me/H4K5)” value (protein RBM25 (P49756), run C6) was 0.03292 and the “B6 log2 (H4K5me/H4K5)” value (protein RBM28 (Q9NW13), run B6) was 0.08184. The “C6 log (H4K5me/H4K5)” value (protein RBM28 (Q9NW13), run C6) was -0.1684, the “B6 log2 (H4K5me/H4K5)” value (protein RCC1 (P18754), run B6) was -0.02509 and the “C6 log (H4K5me/H4K5)” value (protein RCC1 (P18754), run C6) was 0.07571. For the same substance, the “B6 log2 (H4K5me/H4K5)” value (protein RCC2 (Q9P258), run B6) was -0.001202, the “C6 log (H4K5me/H4K5)” value (protein RCC2 (Q9P258), run C6) was 0.002068 and the “B6 log2 (H4K5me/H4K5)” value (protein RFC2 (P35250), SILAC run B6) was -0.5639. For the same substance, the “C6 log (H4K5me/H4K5)” value (protein RFC2 (P35250), SILAC run C6) was 0.2299, the “B6 log2 (H4K5me/H4K5)” value (protein RNPS1 (H3BV80), run B6) was -0.01134 and the “C6 log (H4K5me/H4K5)” value (protein RNPS1 (H3BV80), run C6) was 0.06229. For the same substance, the “B6 log2 (H4K5me/H4K5)” value (protein RPL3 (P39023), run B6) was 0.08452, the “C6 log (H4K5me/H4K5)” value (protein RPL3 (P39023), run C6) was -0.06083 and the “B6 log2 (H4K5me/H4K5)” value (protein RPL8 (E9PKZ0), run B6) was 0.1175. For the same substance, the “C6 log (H4K5me/H4K5)” value (protein RPL8 (E9PKZ0), run C6) was -0.1679, the “B6 log2 (H4K5me/H4K5)” value (protein RPL13 (P26373), SILAC run B6) was -0.4659 and the “C6 log (H4K5me/H4K5)” value (protein RPL13 (P26373), SILAC run C6) was -0.6354. The “B6 log2 (H4K5me/H4K5)” value (protein RPL17 (A0A087WXM6), SILAC run B6) was -0.2705, the “C6 log (H4K5me/H4K5)” value (protein RPL17 (A0A087WXM6), SILAC run C6) was -0.07394 and the “B6 log2 (H4K5me/H4K5)” value (protein RPL24 (C9JXB8), SILAC run B6) was -0.2131. The “C6 log (H4K5me/H4K5)” value (protein RPL24 (C9JXB8), SILAC run C6) was -0.1626, the “B6 log2 (H4K5me/H4K5)” value (protein RPL27A (E9PJD9), run B6) was 0.04612 and the “C6 log (H4K5me/H4K5)” value (protein RPL27A (E9PJD9), run C6) was -0.02178. For the same substance, the “B6 log2 (H4K5me/H4K5)” value (protein RPS6 (P62753), SILAC run B6) was -0.2158, the “C6 log (H4K5me/H4K5)” value (protein RPS6 (P62753), SILAC run C6) was -0.1733 and the “B6 log2 (H4K5me/H4K5)” value (protein RPS9 (P46781), run B6) was -0.01835. For the same substance, the “C6 log (H4K5me/H4K5)” value (protein RPS9 (P46781), run C6) was 0.07362, the “B6 log2 (H4K5me/H4K5)” value (protein RRP1 (P56182), run B6) was 0.1139 and the “C6 log (H4K5me/H4K5)” value (protein RRP1 (P56182), run C6) was 0.1334. For the same substance, the “B6 log2 (H4K5me/H4K5)” value (protein RRP1B (Q14684), SILAC run B6) was -0.2069, the “C6 log (H4K5me/H4K5)” value (protein RRP1B (Q14684), SILAC run C6) was -0.07412 and the “B6 log2 (H4K5me/H4K5)” value (protein RSL1D1 (J3QSV6), SILAC run B6) was -0.2399. The “C6 log (H4K5me/H4K5)” value (protein RSL1D1 (J3QSV6), SILAC run C6) was -0.2367, the “B6 log2 (H4K5me/H4K5)” value (protein RYBP (Q8N488), SILAC run B6) was -0.5235 and the “C6 log (H4K5me/H4K5)” value (protein RYBP (Q8N488), SILAC run C6) was -0.6604. The “B6 log2 (H4K5me/H4K5)” value (protein S4R3H4 ACIN1, run B6) was 0.3258, the “C6 log (H4K5me/H4K5)” value (protein S4R3H4 ACIN1, run C6) was 0.1683 and the “B6 log2 (H4K5me/H4K5)” value (protein SAFB2 (Q14151), run B6) was 0.07268. The “C6 log (H4K5me/H4K5)” value (protein SAFB2 (Q14151), run C6) was -0.1575, the “B6 log2 (H4K5me/H4K5)” value (protein SATB2 (C9JR56), SILAC run B6) was -0.2229 and the “C6 log (H4K5me/H4K5)” value (protein SATB2 (C9JR56), SILAC run C6) was -0.1156. The “B6 log2 (H4K5me/H4K5)” value (protein SCRN1 (Q12765), SILAC run B6) was -1.283, the “C6 log (H4K5me/H4K5)” value (protein SCRN1 (Q12765), SILAC run C6) was -0.7873 and the “B6 log2 (H4K5me/H4K5)” value (protein SEPHS1 (P49903), run B6) was -0.02418. For the same substance, the “C6 log (H4K5me/H4K5)” value (protein SEPHS1 (P49903), run C6) was -0.2248, the “B6 log2 (H4K5me/H4K5)” value (protein SEPT7 (E7ES33), SILAC run B6) was -0.5479 and the “C6 log (H4K5me/H4K5)” value (protein SEPT7 (E7ES33), SILAC run C6) was -0.9057. The “B6 log2 (H4K5me/H4K5)” value (protein SEPT9 (Q9UHD8), SILAC run B6) was -0.7376, the “C6 log (H4K5me/H4K5)” value (protein SEPT9 (Q9UHD8), SILAC run C6) was -1.027 and the “B6 log2 (H4K5me/H4K5)” value (protein SERBP1 (Q8NC51), run B6) was -0.01825. The “C6 log (H4K5me/H4K5)” value (protein SERBP1 (Q8NC51), run C6) was 0.000826, the “B6 log2 (H4K5me/H4K5)” value (protein SET (Q01105), run B6) was 0.02345 and the “C6 log (H4K5me/H4K5)” value (protein SET (Q01105), run C6) was 0.002162. For the same substance, the “B6 log2 (H4K5me/H4K5)” value (protein SF3B2 (Q13435), run B6) was 0.01409, the “C6 log (H4K5me/H4K5)” value (protein SF3B2 (Q13435), run C6) was 0.05282 and the “B6 log2 (H4K5me/H4K5)” value (protein SFPQ (P23246), SILAC run B6) was -0.1964. The “C6 log (H4K5me/H4K5)” value (protein SFPQ (P23246), SILAC run C6) was -0.1626, the “B6 log2 (H4K5me/H4K5)” value (protein SHMT2 (H0YIZ0), SILAC run B6) was -0.4157 and the “C6 log (H4K5me/H4K5)” value (protein SHMT2 (H0YIZ0), SILAC run C6) was -0.3495. For the same substance, the “B6 log2 (H4K5me/H4K5)” value (protein SKIV2L2 (P42285), SILAC run B6) was -0.2278, the “C6 log (H4K5me/H4K5)” value (protein SKIV2L2 (P42285), SILAC run C6) was 0.1964 and the “B6 log2 (H4K5me/H4K5)” value (protein SLC4A1AP (A0A087X0M4), run B6) was 0.07671. For the same substance, the “C6 log (H4K5me/H4K5)” value (protein SLC4A1AP (A0A087X0M4), run C6) was -0.1873, the “B6 log2 (H4K5me/H4K5)” value (protein SMARCA5 (O60264), run B6) was 0.1127 and the “C6 log (H4K5me/H4K5)” value (protein SMARCA5 (O60264), run C6) was 0.1015. The “B6 log2 (H4K5me/H4K5)” value (protein SMARCAD1 (Q9H4L7), run B6) was 0.1065, the “C6 log (H4K5me/H4K5)” value (protein SMARCAD1 (Q9H4L7), run C6) was 0.07169 and the “B6 log2 (H4K5me/H4K5)” value (protein SMARCC2 (Q8TAQ2), run B6) was 0.115. The “C6 log (H4K5me/H4K5)” value (protein SMARCC2 (Q8TAQ2), run C6) was 0.2952, the “B6 log2 (H4K5me/H4K5)” value (protein SMCHD1 (A6NHR9), run B6) was 0.05088 and the “C6 log (H4K5me/H4K5)” value (protein SMCHD1 (A6NHR9), run C6) was 0.2468. The “B6 log2 (H4K5me/H4K5)” value (protein SMU1 (Q2TAY7), run B6) was 0.007935, the “C6 log (H4K5me/H4K5)” value (protein SMU1 (Q2TAY7), run C6) was 0.2956 and the “B6 log2 (H4K5me/H4K5)” value (protein SNRPD3 (P62318), run B6) was 0.08292. For the same substance, the “C6 log (H4K5me/H4K5)” value (protein SNRPD3 (P62318), run C6) was -0.5215, the “B6 log2 (H4K5me/H4K5)” value (protein SNRPN (J3QLE5), run B6) was 0.1033 and the “C6 log (H4K5me/H4K5)” value (protein SNRPN (J3QLE5), run C6) was 0.3043. The “B6 log2 (H4K5me/H4K5)” value (protein SP1 (P08047), run B6) was 0.09154, the “C6 log (H4K5me/H4K5)” value (protein SP1 (P08047), run C6) was 0.1425 and the “B6 log2 (H4K5me/H4K5)” value (protein SRPK1 (Q96SB4), run B6) was 0.05055. The “C6 log (H4K5me/H4K5)” value (protein SRPK1 (Q96SB4), run C6) was -0.002077, the “B6 log2 (H4K5me/H4K5)” value (protein SRRM1 (Q8IYB3), run B6) was 0.05819 and the “C6 log (H4K5me/H4K5)” value (protein SRRM1 (Q8IYB3), run C6) was -0.1474. For the same substance, the “B6 log2 (H4K5me/H4K5)” value (protein SRRM2 (Q9UQ35), SILAC run B6) was -0.2967, the “C6 log (H4K5me/H4K5)” value (protein SRRM2 (Q9UQ35), SILAC run C6) was -0.3124 and the “B6 log2 (H4K5me/H4K5)” value (protein SRSF2 (J3QL05), run B6) was 0.01244. For the same substance, the “C6 log (H4K5me/H4K5)” value (protein SRSF2 (J3QL05), run C6) was -0.01693, the “B6 log2 (H4K5me/H4K5)” value (protein SRSF3 (P84103), run B6) was 0.06757 and the “C6 log (H4K5me/H4K5)” value (protein SRSF3 (P84103), run C6) was 0.1396. For the same substance, the “B6 log2 (H4K5me/H4K5)” value (protein SRSF4 (Q08170), run B6) was 0.04611, the “C6 log (H4K5me/H4K5)” value (protein SRSF4 (Q08170), run C6) was 0.02184 and the “B6 log2 (H4K5me/H4K5)” value (protein SRSF9 (Q13242), run B6) was 0.05869. For the same substance, the “C6 log (H4K5me/H4K5)” value (protein SRSF9 (Q13242), run C6) was 0.008714, the “B6 log2 (H4K5me/H4K5)” value (protein SSU72 (Q9NP77), SILAC run B6) was -0.9312 and the “C6 log (H4K5me/H4K5)” value (protein SSU72 (Q9NP77), SILAC run C6) was -0.5875. For the same substance, the “B6 log2 (H4K5me/H4K5)” value (protein STIP1 (F5H783), run B6) was -0.02077, the “C6 log (H4K5me/H4K5)” value (protein STIP1 (F5H783), run C6) was 0.2627 and the “B6 log2 (H4K5me/H4K5)” value (protein STRAP (Q9Y3F4), run B6) was 0.01999. For the same substance, the “C6 log (H4K5me/H4K5)” value (protein STRAP (Q9Y3F4), run C6) was 0.07545, the “B6 log2 (H4K5me/H4K5)” value (protein SUMO1 (P63165), SILAC run B6) was -0.2603 and the “C6 log (H4K5me/H4K5)” value (protein SUMO1 (P63165), SILAC run C6) was -0.1977. For the same substance, the “B6 log2 (H4K5me/H4K5)” value (protein SYMPK (Q92797), SILAC run B6) was -0.4801, the “C6 log (H4K5me/H4K5)” value (protein SYMPK (Q92797), SILAC run C6) was -0.2582 and the “B6 log2 (H4K5me/H4K5)” value (protein SYNCRIP (O60506), run B6) was 0.1142. For the same substance, the “C6 log (H4K5me/H4K5)” value (protein SYNCRIP (O60506), run C6) was -0.05723 and the “B6 log2 (H4K5me/H4K5)” value (protein TARDBP (A0A087WX29), run B6) was 0.02534.
